In publication PMC10817852, “Vascular injury activates the ELK1/SND1/SRF pathway to promote vascular smooth muscle cell proliferative phenotype and neointimal hyperplasia”:

How the values were obtained:
Experiment in all cases: EMSA
ELK1 = details: unlabeled probe (200-fold) diminished binding; Beyotime GS009 chemiluminescent EMSA kit binding buffer (composition, salt and pH not given), 20 fmol biotin probe, 0.1 ug protein, 10 min at room temperature; recombinant protein; label: biotin
SRF (1-266) = biological target: T1, SRF (1-266) (UniProt P11831); details: Beyotime GS009 chemiluminescent EMSA kit binding buffer (composition, salt and pH not given), 20 fmol biotin probe, 0.1 ug protein, 10 min at room temperature; recombinant protein; label: biotin
T1 sequence (looked up, limits assumed): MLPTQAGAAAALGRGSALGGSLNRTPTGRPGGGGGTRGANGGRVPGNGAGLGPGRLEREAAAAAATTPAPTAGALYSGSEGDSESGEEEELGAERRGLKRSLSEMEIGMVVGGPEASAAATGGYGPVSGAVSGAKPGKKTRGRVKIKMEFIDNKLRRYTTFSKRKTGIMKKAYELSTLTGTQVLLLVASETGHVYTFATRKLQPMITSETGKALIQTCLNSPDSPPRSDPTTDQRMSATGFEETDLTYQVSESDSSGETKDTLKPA

SND1 (1-660) = biological target: T2, SND1 (1-660) (UniProt Q78PY7); details: SND1 alone; Beyotime GS009 chemiluminescent EMSA kit binding buffer (composition, salt and pH not given), 20 fmol biotin probe, 0.1 ug protein, 10 min at room temperature; recombinant protein; residues 1-660; label: biotin
T2 sequence (looked up): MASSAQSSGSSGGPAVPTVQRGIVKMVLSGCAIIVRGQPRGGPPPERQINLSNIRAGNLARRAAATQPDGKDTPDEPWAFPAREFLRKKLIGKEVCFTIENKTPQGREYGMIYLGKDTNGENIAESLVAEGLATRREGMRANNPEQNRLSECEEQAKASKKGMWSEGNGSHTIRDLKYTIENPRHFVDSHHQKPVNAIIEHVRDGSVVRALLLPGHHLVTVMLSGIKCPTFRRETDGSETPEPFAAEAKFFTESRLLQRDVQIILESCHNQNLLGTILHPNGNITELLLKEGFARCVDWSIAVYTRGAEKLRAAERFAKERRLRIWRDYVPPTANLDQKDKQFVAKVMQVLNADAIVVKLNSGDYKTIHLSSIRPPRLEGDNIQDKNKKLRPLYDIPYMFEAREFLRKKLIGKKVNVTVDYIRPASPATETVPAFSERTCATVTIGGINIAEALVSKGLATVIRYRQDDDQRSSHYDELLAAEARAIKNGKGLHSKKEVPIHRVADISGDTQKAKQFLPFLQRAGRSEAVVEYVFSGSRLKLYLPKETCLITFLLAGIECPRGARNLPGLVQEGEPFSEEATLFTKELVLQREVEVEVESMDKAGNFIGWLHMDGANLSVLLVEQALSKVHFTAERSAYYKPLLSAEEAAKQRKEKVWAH

Sequence: CCGGAAGTCCGGAAGTCCGGAAGTCCGGAAGTCCGGAAGT (double strand) [Snd1 ELK1-motif probe]
- binding result (ELK1): binds

Sequence: CCTATATAGACCTATATAGACCTATATAGACCTATATAGACCTATATAGA (double strand) [Cdk2 CArG probe]
- binding result (SRF (1-266)): binds
- binding result (SND1 (1-660)): no binding

Sequence: CCTATTTAGTCCTATTTAGTCCTATTTAGTCCTATTTAGTCCTATTTAGT (double strand) [Iqgap1 CArG probe]
- binding result (SRF (1-266)): binds
- binding result (SND1 (1-660)): no binding

Sequence: CCTTAAATGGCCTTAAATGGCCTTAAATGGCCTTAAATGGCCTTAAATGG (double strand) [Rock2 CArG probe]
- binding result (SRF (1-266)): binds
- binding result (SND1 (1-660)): no binding

For some of these results: A negative result means that nothing was seen under these conditions. For some of these results: At least one verdict was read from the data and is not stated in words by the source. For some of these results: Tags and fusion partners may be left off the protein sequences shown. For some of these results: Construct, isoform or probe ends are uncertain for at least one entry.
